The list shows a part of the results, in another mix than the full data. At the low end of the ranking the order means little.

Our source for the binding signal values is publication PMC7862700.

For this assay, the target named is SPI1 (UniProt P17947). The experiment in a line: DAPPL (digital affinity profiling via proximity ligation, sequencing). As to conditions: 10 mM Tris-HCl pH 7.5, 50 mM NaCl, 1 mM DTT, 4% glycerol, room temperature, 30 min; GST-TFs on glutathione beads, 16-mer random dsDNA library, 0.1% …; high values mean tight binding; double strand, one strand shown; scale: fold enrichment (6-mer frequency, TF over GST control).
For GGGGCT, the binding signal was determined as 0.923.
TGCTCC: the binding signal was determined as 1.38.
In turn, TTATCC had a binding signal of 1.41.
Turning to CTACGG, the binding signal came to 1.24.
Regarding TCCGAG, the binding signal is 0.897.
In turn, GAAGGT yielded a binding signal of 0.847.
As for CATTAC, the figure is 1.1; as for TTGGCT, 0.89.
In turn, GATACC came in with a binding signal of 0.934.
With AGGATG, the binding signal is 0.933.
Sequence CGTTCC registered a binding signal of 1.44.
The sequence TGTCTG gave a binding signal of 1.17.
In turn, GCCCCA registered a binding signal of 0.972.
On to GAAGAT, for which the binding signal turned out to be 0.833.
As to TTCAAC, the binding signal turned out to be 1.28.
Sequence TACGGG displayed a binding signal of 0.802.
Take CAATGA: the binding signal stood at 0.99.
The sequence GATTAA returned a binding signal of 0.965.
For TCATAG the value was 0.873; for AGATCA, 0.79; for GGTCTG, 0.916.
TTCTAT came in with a binding signal of 1.36.
As for AACCGA, the figure is 0.989.
The sequence AGCATG gave a binding signal of 0.907.
Sequence GCCAAC yielded a binding signal of 0.935.
For the sequence AGATCT, the binding signal came to 0.96.
Take CTTACT: the binding signal was determined as 1.3.
Sequence GCACGA displayed a binding signal of 0.986.
In the case of GTGGTC, the binding signal was 0.914.
TTGGGA gave a binding signal of 0.978.
In the case of CGCGAA, the binding signal worked out at 0.966.
Consider GCCGTC, for which the binding signal is 0.921.
As for CCACAG, the binding signal was found to be 0.936.
For ATTCGC, the binding signal was 1.21.
On to GCGTAT, for which the binding signal amounted to 0.974.
Turning to AGAATC, the binding signal is 0.938.
Take GATCAA: the binding signal was determined as 0.997.
In turn, CCACAT showed a binding signal of 1.07.
Sequence GTACAG came in with a binding signal of 0.954.
